Measured values taken from PubChem BioAssay AID485353 (National Center for Advancing Translational Sciences (NCATS), 2010).
Hit rate of the full screen: of about 330,000 compounds, about 610 (0.18%) were called active. Inconclusive results, whose numbers are uncertain, are shown with a selection of clear calls. Calls follow the shape of the full dose curve. Potencies of inconclusive entries are doubtful fits and often do not repeat.

Assay: qHTS of Yeast-based Assay for SARS-CoV PLP; also: nearly all actives have a fitted effect of over 55% in size; as to activity, positive = growth rescue: 0% is about no effect
Settings: S. cerevisiae expressing SARS-CoV PLpro; Potency: growth rescue; activity, positive = growth rescue: at 32.9 µM (top of the series)
Potency is read from the fitted curve at half-maximal effect.

SMILES | activity, positive = growth rescue | Potency
COc1ccc(NC(=O)Nc2ccc3c(c2)C(=O)N([C@@H](C)CO)C[C@@H](C)[C@@H](CN(C)S(=O)(=O)c2cn(C)cn2)O3)cc1 | inactive: 0.706% | –
CC(CC(=O)Nc1ccc(F)c([N+](=O)[O-])c1)c1ccccc1 (centres undefined) | – | inconclusive: 20 µM [activator, single point]
O=C1C2C3C=CC(CC3)C2C(=O)N1/N=C/c1ccccc1O (centres undefined) | – | active: 5.62 µM
Cc1ccc(Cl)cc1NC(=O)Cn1cc2c(n1)CCCC2 | inactive: 0.335% | –
Cc1nc(NC(N)=S)sc1C(=O)Nc1ccccc1 | – | inconclusive: 4.47 µM [activator, single point]
COC(=O)CSC1=C(C#N)C(=O)NC(c2ccccc2)S1 (centres undefined) | inactive: 5.39% | –
O=C(NCCSc1c[nH]c2ccccc12)C1CC1 | – | inconclusive: 20 µM [activator, single point]
COc1cc2c(cc1OC)C1(Nc3c-2c(-c2ccccc2)nn3-c2ccccc2)C(=O)Nc2ccccc21 (centres undefined) | – | inconclusive: 4.47 µM [activator, single point]
Cc1cc(NC(=O)CCC(=O)N(c2ccc(F)cc2)C2(C(=O)NC3CCCCC3)CCCC2)no1 | – | inconclusive: 4.47 µM [activator, single point]
O=C(CN1CCN(C(=O)C2CCCO2)CC1)Nc1cc(Cl)ccc1Cl (centres undefined) | – | inconclusive: 2 µM [activator, full curve]
CCn1c(C)c(C)c2cc(C(=O)N3CCCC3)ccc21 | – | inconclusive: 3.98 µM [activator, single point]
CCC(C)NC(=S)Nc1ccccc1OC (centres undefined) | – | inconclusive: 3.55 µM [activator, full curve, poor fit]
CC(=O)Nc1ccc(S(=O)(=O)N(C)CC(=O)Nc2ccc(F)c(F)c2F)cc1 | inactive: -3.29% | –
Cc1cc(C(=O)COC(=O)c2ccc3c(c2)NC(=O)CS3)c(C)n1CC1CCCO1 (centres undefined) | inactive: 3.2% | –
O=C(CN1CCN(S(=O)(=O)c2ccc(F)cc2)CC1)NC1CC1 | – | inconclusive: 12.6 µM [activator, single point]
Cc1cc(/C=N/n2c(COc3ccccc3)nc3ccccc3c2=O)c(O)c([N+](=O)[O-])c1 | – | active: 2.51 µM
O=C(OCC(=O)N1CCCc2ccccc21)c1cc(Cl)ccc1O | – | inconclusive: 3.98 µM [activator, single point]
Fc1ccc(CNC(=S)Nc2ccc(Cl)cc2)cc1 | – | inconclusive: 14.1 µM [activator, single point]
CC1(c2nnc(Cc3ccccc3)o2)CC(c2ccc(OC(F)(F)F)cc2)=NO1 (centres undefined) | – | active: 10 µM
O=C1CSC(c2cccc([N+](=O)[O-])c2)N1CCc1ccccc1 (centres undefined) | – | inconclusive: 10 µM [activator, single point]
O=C(N/N=C/c1c(O)n(Cc2ccc(F)cc2)c(=O)[nH]c1=O)c1ccccc1O | – | active: 11.2 µM
O=[N+]([O-])c1ccc2nc(SCc3cn4cc(Cl)ccc4n3)[nH]c2c1 | – | inconclusive: 1 µM [activator, partial curve]
Cc1ccccc1C(=O)OCn1nnc2ccccc2c1=O | – | inconclusive: 0.355 µM [activator, full curve, poor fit]
O=c1c2ccccc2ncn1-c1ccc([N+](=O)[O-])c(C(F)(F)F)c1 | inactive: 2.42% | –
COc1ccc(S(=O)(=O)NNC(=O)C23CC4CC(CC(C4)C2)C3)cc1 | – | inconclusive: 10 µM [activator, single point]

SMILES | activity, positive = growth rescue | Potency
Cc1ccc(-c2ccc(/C=N/n3cnnc3)o2)cc1Cl | – | inconclusive: 3.98 µM [activator, single point]
CCC(Oc1ccccc1)C(=O)Nc1ccc(C)c(S(=O)(=O)N2CCOCC2)c1 (centres undefined) | inactive: -0.721% | –
CN(C)CCN(C(=O)c1ccc2c(c1)CCCC2)c1nc2c(F)cccc2s1 | – | inconclusive: 0.891 µM [activator, full curve, poor fit]
O=C(CCl)Nc1ccc(Oc2cnc3ccccc3n2)cc1 | – | active: 10 µM
COc1ccc(S(=O)(=O)N(C)C[C@@H]2Oc3c(NS(C)(=O)=O)cccc3C(=O)N([C@@H](C)CO)C[C@H]2C)cc1 | – | inconclusive: 14.1 µM [activator, single point]
CCOC(=O)COn1c(=O)c(-c2ccc(C)cc2)[n+]([O-])c2ccccc21 | inactive: 1.55% | –
COc1cccc(NC(=O)Nc2cccnc2)c1 | inactive: -0.757% | –
COc1ccccc1CCNC(=O)C(=O)NCC1OCCN1S(=O)(=O)c1ccccc1 (centres undefined) | – | inconclusive: 20 µM [activator, single point]
Cn1c(CC(=O)NCCO)c(Sc2ccccc2)c2ccccc21 | – | inconclusive: 3.16 µM [activator, full curve, poor fit]
CCOC(=O)CSc1nnc(CNC(=O)c2ccc(OC)c(OC)c2)n1C | – | inconclusive: 0.398 µM [activator, full curve, poor fit]
O=C(CN1CCCC1c1ccc2c(c1)OCCO2)NC(=O)Nc1ccccc1 (centres undefined) | – | inconclusive: 3.16 µM [activator, single point]
CCn1c(=O)c2ccccc2n2c(SCC(N)=O)nnc12 | – | inconclusive: 2.82 µM [activator, single point]
Cc1cc(C)n2c(Br)c(CSc3nc4ccccc4s3)nc2n1 | – | inconclusive: 3.55 µM [activator, single point]
CCOC(=O)N1CCN(C(=O)c2ccc3c(c2)NC(=O)/C(=C\c2cccc(C)c2)S3)CC1 | inactive: 10.9% | –
Cc1nn(CC(=O)NCc2ccc(-n3cccn3)cc2)c(C)c1[N+](=O)[O-] | – | inconclusive: 0.355 µM [activator, partial curve, poor fit]
CN(C(=O)COC(=O)c1cc2c(s1)CCCCC2)C1CCS(=O)(=O)C1 (centres undefined) | – | inconclusive: 20 µM [activator, single point]
CCOc1ccc(C(=O)NC(=S)Nc2ccc(N3CCOCC3)c(Cl)c2)cc1[N+](=O)[O-] | – | inconclusive: 3.98 µM [activator, single point]
CCSC(C)CC1C/C(=N/O)c2c(CC)noc2C1 (centres undefined) | – | inconclusive: 2.82 µM [activator, full curve]
Cn1c(-c2csc(-c3cccc(C(F)(F)F)c3)n2)n[nH]c1=S | inactive: 0.543% | –
Fc1ccc(CCNC(=S)Nc2ccc(F)cc2)cc1 | – | inconclusive: 4.47 µM [activator, partial curve]
COc1ccc(Cc2nc3ccc(C(=O)NC(C)c4cn(C)nc4C)cc3o2)cc1 (centres undefined) | – | inconclusive: 2.51 µM [activator, single point]
CCCCC(=O)NC(c1ccc(Cl)cc1Cl)c1ccc2cccnc2c1O (centres undefined) | – | inconclusive: 3.55 µM [activator, single point]
Cc1cnc(C(=O)OCC(=O)NCc2ccc(Cl)cc2)cn1 | inactive: 0.661% | –
COc1cccc(C(=O)COC(=O)C2CC3CCCC(C2)C3=O)c1 (centres undefined) | inactive: -1.64% | –

Part of the list above in order of formula weight, largest number first.
SMILES | activity, positive = growth rescue | Potency
COc1ccc(S(=O)(=O)N(C)C[C@@H]2Oc3c(NS(C)(=O)=O)cccc3C(=O)N([C@@H](C)CO)C[C@H]2C)cc1 | – | inconclusive: 14.1 µM [activator, single point]
CCOC(=O)N1CCN(C(=O)c2ccc3c(c2)NC(=O)/C(=C\c2cccc(C)c2)S3)CC1 | inactive: 10.9% | –
O=C(CN1CCCC1c1ccc2c(c1)OCCO2)NC(=O)Nc1ccccc1 (centres undefined) | – | inconclusive: 3.16 µM [activator, single point]
